Results are given in words; binding and its absence hold for the method and conditions named. Some results given as binding are weak or reduced against the parent protein; the word gives no strength.

Sequences of proteins named here, by UniProt entry; tags and fusion partners are left off. A change or cut given only in a name is not applied to a line headed by its entry.
UniProt Q8NHL6: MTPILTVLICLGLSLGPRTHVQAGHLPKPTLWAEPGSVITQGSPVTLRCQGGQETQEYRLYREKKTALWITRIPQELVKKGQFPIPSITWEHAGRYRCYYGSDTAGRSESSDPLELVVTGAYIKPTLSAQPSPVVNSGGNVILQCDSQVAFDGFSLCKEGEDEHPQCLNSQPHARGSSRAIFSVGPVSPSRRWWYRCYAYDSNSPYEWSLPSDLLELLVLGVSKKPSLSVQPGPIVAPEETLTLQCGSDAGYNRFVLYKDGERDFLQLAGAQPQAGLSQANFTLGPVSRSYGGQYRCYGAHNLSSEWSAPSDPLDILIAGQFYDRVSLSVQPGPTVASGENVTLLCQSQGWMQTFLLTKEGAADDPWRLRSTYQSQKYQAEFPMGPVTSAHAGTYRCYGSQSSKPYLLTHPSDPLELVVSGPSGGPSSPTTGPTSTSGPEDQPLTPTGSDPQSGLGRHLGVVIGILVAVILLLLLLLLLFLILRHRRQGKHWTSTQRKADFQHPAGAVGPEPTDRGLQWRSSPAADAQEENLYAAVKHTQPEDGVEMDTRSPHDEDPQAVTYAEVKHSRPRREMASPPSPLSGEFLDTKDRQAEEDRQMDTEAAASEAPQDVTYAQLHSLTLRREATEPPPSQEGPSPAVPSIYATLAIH

Data on 12 molecules can be found in patent US20220048991A1 (BIOND BIOLOGICS, published 2022).

Experiment [1] deals with human ILT2 fused to mouse CD3 zeta chain, on BW cells (human; mouse) (UniProt P24161). Description: flow cytometry on BW cells transfected with ILT2. On the technique in general: Flow cytometry measures light scatter and fluorescence of single cells or particles in a stream.
For experiment [2] the target is unchanged. In words: flow cytometry (PE) on BW cells transfected with human ILT2.
Experiment [3] has the same target. In words: flow cytometry on BW cells transfected with human ILT2.
The target is the same in experiment [4]. Description: flow cytometry on BW cells transfected with human ILT2; fold above background (FAB) [left panel].
Experiment [5] addresses T1, recombinant ILT2 (human) (human, UniProt Q8NHL6 24-461).
T1 construct: also called recombinant ILT2 peptide; ILT2 protein
Description: ELISA on recombinant ILT2. (In general: ELISA stands for enzyme-linked immunosorbent assay.)

Experiment [6] concerns the target T2, biotinylated recombinant human ILT2-Fc (human, UniProt Q8NHL6 24-458, limits assumed, conjugated with biotin (sites not given)).
T2 construct: Bought (Sino Biologics); the order of the parts is therefore uncertain; also called ILT2-biotin; biotinylated ILT2; not shown: Fc portion of human IgG1
Description: flow cytometry blocking assay: ILT2-biotin binding to HLA-G transfected A375 cells, Streptavidin-PE; antibody concentration not given.

The target in experiment [7] is human ILT2 fused to mouse CD3 zeta chain, on BW cells (human; mouse) (UniProt P24161). In words: flow cytometry on BW cells transfected with human ILT2; fold above background (FAB) [right panel].
The target is the same in experiment [8]. Description: flow cytometry on BW cells transfected with human ILT2; fold above background (FAB) over secondary antibody only.

B1: 19E3 (hybridoma-derived, murine) (antibody, V domains shown)
VH: QVQLQQSGAELARPGASVKLSCKASGYTFTSYGISWVKQRTGQGLEWVGEIYPGSGNSYYNEKFKGKATLTADKSSSTAYMELRSLTSEDSAVYFCARSNDGYPDYWGQGTTLTVSS
VL: DIQMTQSSSYLSVSLGGRVTITCKASDHINNWLAWYQQKPGNAPRLLISGATSLETGVPSRFSGSGSGKDYTLSITSLQTEDVATYYCQQYWSTPWTFGGGTKLEIK
B1: the binding entry in experiment [1] and in experiment [2] was “binds” throughout.

B2: chimeric 19E3 (antibody, V domains shown)
VH: QVQLQQSGAELARPGASVKLSCKASGYTFTSYGISWVKQRTGQGLEWVGEIYPGSGNSYYNEKFKGKATLTADKSSSTAYMELRSLTSEDSAVYFCARSNDGYPDYWGQGTTLTVSS
VL: DIQMTQSSSYLSVSLGGRVTITCKASDHINNWLAWYQQKPGNAPRLLISGATSLETGVPSRFSGSGSGKDYTLSITSLQTEDVATYYCQQYWSTPWTFGGGTKLEIK
notes: Chimera of murine 19E3; also called chimeric murine 19E3
On to B2, for which the binding entry in experiment [3] and in experiment [4] was “binds” throughout.

B3: 17F2 (hybridoma-derived, murine) (antibody, V domains shown)
VH: QVQLQQSDAELVKPGASVKISCKVSGYTFTDHTIHWMKQRPEQGLEWIGYIYPRDGSTKYNEKFKGKATLTADKSSSTAYMQLNSLTSEDSAVYFCARTWDYFDYWGQGTTLTVSS
VL: DIVLTQSPASLAVSLGQRATISCRASESVDSYGNSFMHWYQQKPGQPPKLLIYRASNLESGIPARFSGSGSRTDFTLTINPVEADDVATYYCQQSNEDPYTFGGGTKLEIK
Turning to B3, the binding entry in experiment [1] and in experiment [2] was “binds” each time.

B4: 15G8 (hybridoma-derived, murine) (antibody, V domains shown)
VH: DVQLQGSGPGLVKPSQSLSLTCSVTGYSITSGYYWNWIRQFPGNKLEWMGYISYDGSNNYNPSLKNRISITRDTSKNQFFLKLNSVTSEDTATYYCAHGYSYYYAMDCWGQGTSVTVSS
VL: DIQMTQTTSSLSASLGDRVTISCRTSQDISNYLNWYQQKPDGTVKLLISYTSRLHSGVPSRFSGSGSGTDYSLTISNLEQEDIATYFCQQGNTLPTFGSGTKLEIK
notes: also called 15G8 antibody
As for B4, the binding entry in experiment [5], in experiment [1], in experiment [2] and in experiment [6] was “binds” throughout.

B5: chimeric 15G8 antibody (antibody, V domains shown)
VH: DVQLQGSGPGLVKPSQSLSLTCSVTGYSITSGYYWNWIRQFPGNKLEWMGYISYDGSNNYNPSLKNRISITRDTSKNQFFLKLNSVTSEDTATYYCAHGYSYYYAMDCWGQGTSVTVSS
VL: DIQMTQTTSSLSASLGDRVTISCRTSQDISNYLNWYQQKPDGTVKLLISYTSRLHSGVPSRFSGSGSGTDYSLTISNLEQEDIATYFCQQGNTLPTFGSGTKLEIK
notes: Chimeric form of murine 15G8
For B5, the binding entry in experiment [3] and in experiment [7] was “binds” each time.

B6: 15G8-34 (humanized 15G8, VH3/Vk4) (antibody, IgG4, V domains shown)
VH: DVQLQGSGPGLVKPSETLSLTCSVTGYSITSGYYWNWIRQPPGKGLEWMGYISYDGSNNYNPSLKNRITISRDTSKNQFSLKLSSVTAADTATYYCAHGYSYYYAMDAWGQGTTVTVSS
VL: DIQMTQSPSSLSASVGDRVTITCRTSQDISNYLNWYQQKPGKAPKLLISYTSRLHSGVPSRFSGSGSGTDYTLTISSLQPEDFATYFCQQGNTLPTFGQGTKLEIK
notes: Humanized IgG4 (S228P, L235E), kappa
Regarding B6, the binding entry in experiment [3] and in experiment [8] was “binds” each time.

B7: 15G8-23 (humanized 15G8, VH2/Vk3) (antibody, human IgG4 S228P, kappa, V domains shown)
VH: DVQLQGSGPGLVKPSETLSLTCSVTGYSITSGYYWNWIRQFPGKKLEWMGYISYDGSNNYNPSLKNRITISRDTSKNQFSLKLSSVTAADTATYYCAHGYSYYYAMDAWGQGTTVTVSS
VL: DIQMTQSPSSLSASVGDRVTITCRTSQDISNYLNWYQQKPGKAVKLLISYTSRLHSGVPSRFSGSGSGTDYTLTISSLQPEDFATYYCQQGNTLPTFGQGTKLEIKR
notes: as for B6
As to B7, the binding result in experiment [3] and in experiment [8] was “binds” in each case.

B8: 15G8-53 (humanized 15G8, VH5/Vk3) (antibody, human IgG4 S228P, kappa, V domains shown)
VH: QVQLQGSGPGLVKPSETLSLTCTVTGYSITSGYYWNWIRQPPGKGLEWIGYISYDGSNNYNPSLKNRVTISRDTSKNQFSLKLSSVTAADTATYYCAHGYSYYYAMDAWGQGTTVTVSS
VL: DIQMTQSPSSLSASVGDRVTITCRTSQDISNYLNWYQQKPGKAVKLLISYTSRLHSGVPSRFSGSGSGTDYTLTISSLQPEDFATYYCQQGNTLPTFGQGTKLEIKR
notes: as for B6
Consider B8, for which the binding entry in experiment [3] and in experiment [8] was “binds” each time.

B9: 15G8-44 (humanized 15G8, VH4/Vk4) (antibody, IgG4, V domains shown)
VH: QVQLQGSGPGLVKPSETLSLTCSVTGYSITSGYYWNWIRQPPGKGLEWMGYISYDGSNNYNPSLKNRVTISRDTSKNQFSLKLSSVTAADTATYYCAHGYSYYYAMDAWGQGTTVTVSS
VL: DIQMTQSPSSLSASVGDRVTITCRTSQDISNYLNWYQQKPGKAPKLLISYTSRLHSGVPSRFSGSGSGTDYTLTISSLQPEDFATYFCQQGNTLPTFGQGTKLEIK
notes: as for B6
For the molecule B9, the binding entry in experiment [3] and in experiment [8] was “binds” in each case.

B10: 15G8-32 (humanized 15G8, VH3/Vk2) (antibody, human IgG4 S228P, kappa, V domains shown)
VH: DVQLQGSGPGLVKPSETLSLTCSVTGYSITSGYYWNWIRQPPGKGLEWMGYISYDGSNNYNPSLKNRITISRDTSKNQFSLKLSSVTAADTATYYCAHGYSYYYAMDAWGQGTTVTVSS
VL: DIQMTQSPSSLSASVGDRVTITCRTSQDISNYLNWYQQKPGKAVKLLISYTSRLHSGVPSRFSGSGSGTDYTLTISSLQPEDFATYFCQQGNTLPTFGQGTKLEIKR
notes: as for B6
On to B10, for which the binding entry in experiment [3] and in experiment [8] was “binds” throughout.

B11: 15G8-13 (humanized 15G8, VH1/Vk3, alanine variant A108) (antibody, human IgG4 S228P, kappa, V domains shown)
VH: DVQLQGSGPGLVKPSETLSLTCSVTGYSITSGYYWNWIRQFPGKKLEWMGYISYDGSNNYNPSLKNRITISRDTSKNQFSLKLNSVTAADTATYYCAHGYSYYYAMDAWGQGTSVTVSS
VL: DIQMTQSPSSLSASVGDRVTITCRTSQDISNYLNWYQQKPGKAVKLLISYTSRLHSGVPSRFSGSGSGTDYTLTISSLQPEDFATYYCQQGNTLPTFGQGTKLEIKR
notes: Humanized IgG4 (S228P, L235E), kappa; also called 15G8 humanized antibody; BND-22
B11: the binding result in experiment [3], in experiment [7] and in experiment [8] was “binds” in each case.

B12: 15G8-54 (humanized 15G8, VH5/Vk4) (antibody, IgG4, V domains shown)
VH: QVQLQGSGPGLVKPSETLSLTCTVTGYSITSGYYWNWIRQPPGKGLEWIGYISYDGSNNYNPSLKNRVTISRDTSKNQFSLKLSSVTAADTATYYCAHGYSYYYAMDAWGQGTTVTVSS
VL: DIQMTQSPSSLSASVGDRVTITCRTSQDISNYLNWYQQKPGKAPKLLISYTSRLHSGVPSRFSGSGSGTDYTLTISSLQPEDFATYFCQQGNTLPTFGQGTKLEIK
notes: as for B6
As to B12, the binding entry in experiment [3] and in experiment [8] was “binds” throughout.
